Measurements from the supplement of paper PMC10849652.
The list shows a part of the results.

Chains of the proteins cited; added tags and fusions are not shown. Lines headed by an entry give the natural chain unless they say otherwise; changes in a name come on top.
UniProt Q9H3H3: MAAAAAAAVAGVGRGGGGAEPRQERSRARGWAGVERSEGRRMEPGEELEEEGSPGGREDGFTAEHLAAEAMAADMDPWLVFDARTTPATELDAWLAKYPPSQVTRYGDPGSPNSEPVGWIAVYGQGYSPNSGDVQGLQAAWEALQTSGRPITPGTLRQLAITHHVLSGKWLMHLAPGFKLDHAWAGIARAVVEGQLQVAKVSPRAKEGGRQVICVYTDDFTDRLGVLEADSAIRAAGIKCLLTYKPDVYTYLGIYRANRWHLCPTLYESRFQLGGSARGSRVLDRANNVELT
UniProt O14523: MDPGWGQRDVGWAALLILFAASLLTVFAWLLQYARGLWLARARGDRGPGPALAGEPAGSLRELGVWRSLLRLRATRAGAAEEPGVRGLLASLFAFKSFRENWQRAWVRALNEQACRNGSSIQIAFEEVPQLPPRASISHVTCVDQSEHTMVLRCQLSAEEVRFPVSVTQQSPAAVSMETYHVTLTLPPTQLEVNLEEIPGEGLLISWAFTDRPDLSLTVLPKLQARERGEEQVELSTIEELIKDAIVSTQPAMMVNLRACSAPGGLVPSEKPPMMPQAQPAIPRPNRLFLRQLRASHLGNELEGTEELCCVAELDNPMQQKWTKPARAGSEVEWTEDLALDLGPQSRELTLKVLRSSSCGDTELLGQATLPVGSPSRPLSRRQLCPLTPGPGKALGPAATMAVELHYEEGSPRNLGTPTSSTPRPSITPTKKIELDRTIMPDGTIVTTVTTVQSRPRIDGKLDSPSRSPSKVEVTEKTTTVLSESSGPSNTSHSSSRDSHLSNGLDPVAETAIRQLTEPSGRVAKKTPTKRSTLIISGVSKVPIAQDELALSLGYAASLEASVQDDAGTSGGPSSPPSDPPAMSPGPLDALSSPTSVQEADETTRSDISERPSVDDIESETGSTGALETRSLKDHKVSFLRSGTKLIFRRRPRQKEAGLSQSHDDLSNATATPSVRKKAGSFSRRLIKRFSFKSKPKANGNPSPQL
UniProt Q07021: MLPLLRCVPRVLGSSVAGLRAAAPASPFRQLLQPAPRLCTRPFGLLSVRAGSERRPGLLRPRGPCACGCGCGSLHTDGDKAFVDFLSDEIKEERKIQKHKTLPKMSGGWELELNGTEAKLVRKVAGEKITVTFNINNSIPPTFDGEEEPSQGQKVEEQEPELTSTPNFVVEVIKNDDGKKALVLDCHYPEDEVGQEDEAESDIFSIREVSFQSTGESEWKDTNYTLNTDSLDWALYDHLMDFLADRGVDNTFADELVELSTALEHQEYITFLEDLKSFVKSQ
UniProt Q8WVQ1: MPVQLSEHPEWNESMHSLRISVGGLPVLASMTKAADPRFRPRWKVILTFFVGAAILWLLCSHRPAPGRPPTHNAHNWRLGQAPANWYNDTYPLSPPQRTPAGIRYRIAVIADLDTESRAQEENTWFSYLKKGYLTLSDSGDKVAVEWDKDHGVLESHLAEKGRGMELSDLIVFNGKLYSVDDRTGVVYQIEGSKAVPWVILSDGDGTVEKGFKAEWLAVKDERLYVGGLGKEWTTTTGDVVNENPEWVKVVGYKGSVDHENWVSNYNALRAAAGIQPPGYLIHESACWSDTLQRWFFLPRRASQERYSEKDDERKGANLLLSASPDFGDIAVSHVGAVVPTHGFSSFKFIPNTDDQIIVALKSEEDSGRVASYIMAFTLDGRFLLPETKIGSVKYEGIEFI
UniProt Q9H9S4: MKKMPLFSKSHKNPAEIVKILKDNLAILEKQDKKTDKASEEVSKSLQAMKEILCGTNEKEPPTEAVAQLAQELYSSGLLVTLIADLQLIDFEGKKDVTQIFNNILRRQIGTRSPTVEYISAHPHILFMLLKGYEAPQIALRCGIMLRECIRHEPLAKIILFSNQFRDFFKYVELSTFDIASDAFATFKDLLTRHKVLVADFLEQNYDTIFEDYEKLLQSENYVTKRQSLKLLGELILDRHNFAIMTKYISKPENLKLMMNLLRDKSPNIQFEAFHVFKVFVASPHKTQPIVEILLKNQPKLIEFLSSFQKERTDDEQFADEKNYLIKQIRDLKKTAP
UniProt Q8N999, whole entry, looked up: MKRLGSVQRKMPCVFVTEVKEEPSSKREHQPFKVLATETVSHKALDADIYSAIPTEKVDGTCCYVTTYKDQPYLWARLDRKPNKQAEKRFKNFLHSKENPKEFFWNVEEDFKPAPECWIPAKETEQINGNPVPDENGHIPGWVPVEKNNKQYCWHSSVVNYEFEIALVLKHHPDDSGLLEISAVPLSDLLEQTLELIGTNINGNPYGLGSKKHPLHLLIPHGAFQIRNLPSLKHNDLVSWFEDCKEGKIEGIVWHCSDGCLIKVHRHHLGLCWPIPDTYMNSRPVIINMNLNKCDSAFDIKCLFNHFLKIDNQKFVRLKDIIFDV
UniProt A6NDU8: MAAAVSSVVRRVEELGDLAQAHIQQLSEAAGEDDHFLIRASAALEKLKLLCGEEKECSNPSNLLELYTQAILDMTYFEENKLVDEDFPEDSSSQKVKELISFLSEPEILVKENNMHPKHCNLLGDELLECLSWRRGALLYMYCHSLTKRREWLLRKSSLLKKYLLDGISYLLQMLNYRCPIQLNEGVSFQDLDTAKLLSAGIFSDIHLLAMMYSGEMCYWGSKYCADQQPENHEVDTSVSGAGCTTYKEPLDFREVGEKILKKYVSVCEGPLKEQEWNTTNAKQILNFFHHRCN
UniProt Q13895: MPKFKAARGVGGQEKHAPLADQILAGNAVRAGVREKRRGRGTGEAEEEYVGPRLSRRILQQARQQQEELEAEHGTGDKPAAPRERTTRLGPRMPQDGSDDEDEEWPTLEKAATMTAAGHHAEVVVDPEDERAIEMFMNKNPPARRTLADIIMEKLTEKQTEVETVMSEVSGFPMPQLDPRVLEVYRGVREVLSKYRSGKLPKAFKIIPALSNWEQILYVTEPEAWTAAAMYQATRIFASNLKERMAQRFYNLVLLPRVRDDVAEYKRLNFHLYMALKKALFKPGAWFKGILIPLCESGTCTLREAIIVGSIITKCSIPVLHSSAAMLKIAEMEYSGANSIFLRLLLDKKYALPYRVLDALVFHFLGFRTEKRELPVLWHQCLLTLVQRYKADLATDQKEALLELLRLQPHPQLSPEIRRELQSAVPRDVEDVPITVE
UniProt Q7L1Q6: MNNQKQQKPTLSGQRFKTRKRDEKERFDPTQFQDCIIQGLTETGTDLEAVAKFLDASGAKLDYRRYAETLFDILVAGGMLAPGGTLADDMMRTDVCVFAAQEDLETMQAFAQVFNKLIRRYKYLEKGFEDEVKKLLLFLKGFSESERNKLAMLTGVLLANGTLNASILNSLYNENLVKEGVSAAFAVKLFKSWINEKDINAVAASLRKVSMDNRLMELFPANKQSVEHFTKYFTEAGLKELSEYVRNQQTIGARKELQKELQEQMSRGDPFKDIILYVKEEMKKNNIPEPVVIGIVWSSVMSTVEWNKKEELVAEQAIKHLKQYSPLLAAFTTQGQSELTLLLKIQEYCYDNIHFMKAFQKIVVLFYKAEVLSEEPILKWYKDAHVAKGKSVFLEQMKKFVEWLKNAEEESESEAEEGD
UniProt P04632: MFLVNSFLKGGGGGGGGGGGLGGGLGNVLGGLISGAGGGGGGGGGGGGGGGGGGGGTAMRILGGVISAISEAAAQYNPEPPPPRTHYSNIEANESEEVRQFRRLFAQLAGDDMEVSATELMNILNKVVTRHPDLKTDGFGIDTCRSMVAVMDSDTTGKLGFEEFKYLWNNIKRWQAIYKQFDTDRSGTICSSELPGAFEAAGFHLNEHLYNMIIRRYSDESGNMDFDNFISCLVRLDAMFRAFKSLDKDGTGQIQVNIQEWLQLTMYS
UniProt Q9Y297: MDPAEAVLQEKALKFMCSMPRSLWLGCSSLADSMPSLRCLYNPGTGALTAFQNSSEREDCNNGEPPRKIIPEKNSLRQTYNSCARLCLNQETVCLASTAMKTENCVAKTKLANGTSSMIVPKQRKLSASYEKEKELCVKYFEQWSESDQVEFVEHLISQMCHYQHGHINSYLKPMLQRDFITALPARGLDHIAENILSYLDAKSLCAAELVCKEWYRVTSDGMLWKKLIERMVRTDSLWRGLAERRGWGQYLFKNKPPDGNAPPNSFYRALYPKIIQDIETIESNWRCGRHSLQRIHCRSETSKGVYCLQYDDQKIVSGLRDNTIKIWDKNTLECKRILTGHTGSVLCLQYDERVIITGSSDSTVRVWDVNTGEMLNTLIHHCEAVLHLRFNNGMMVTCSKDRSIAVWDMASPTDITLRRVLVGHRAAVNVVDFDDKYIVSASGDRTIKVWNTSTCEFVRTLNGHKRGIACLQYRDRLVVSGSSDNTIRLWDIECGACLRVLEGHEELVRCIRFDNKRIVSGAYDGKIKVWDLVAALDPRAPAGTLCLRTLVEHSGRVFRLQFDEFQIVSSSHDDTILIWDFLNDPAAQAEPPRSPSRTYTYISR
UniProt Q96K31: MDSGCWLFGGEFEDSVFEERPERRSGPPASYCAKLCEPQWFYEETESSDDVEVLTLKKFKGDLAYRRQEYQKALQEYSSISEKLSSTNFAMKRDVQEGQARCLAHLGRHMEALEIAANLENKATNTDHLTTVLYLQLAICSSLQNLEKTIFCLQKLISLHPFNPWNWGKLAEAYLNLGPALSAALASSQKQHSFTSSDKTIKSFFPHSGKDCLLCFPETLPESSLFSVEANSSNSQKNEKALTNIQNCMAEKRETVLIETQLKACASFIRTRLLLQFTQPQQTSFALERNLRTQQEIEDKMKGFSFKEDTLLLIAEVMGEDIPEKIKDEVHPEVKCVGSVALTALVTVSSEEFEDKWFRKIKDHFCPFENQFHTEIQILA
UniProt O43852: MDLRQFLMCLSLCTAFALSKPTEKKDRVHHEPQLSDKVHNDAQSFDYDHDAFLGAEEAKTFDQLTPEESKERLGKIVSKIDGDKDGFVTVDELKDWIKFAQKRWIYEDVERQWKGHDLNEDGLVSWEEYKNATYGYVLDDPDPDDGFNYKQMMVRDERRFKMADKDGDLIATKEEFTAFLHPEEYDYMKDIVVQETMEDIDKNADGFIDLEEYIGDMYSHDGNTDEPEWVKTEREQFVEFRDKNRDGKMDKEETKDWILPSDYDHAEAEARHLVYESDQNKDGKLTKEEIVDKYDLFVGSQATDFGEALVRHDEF
UniProt Q9BPX7: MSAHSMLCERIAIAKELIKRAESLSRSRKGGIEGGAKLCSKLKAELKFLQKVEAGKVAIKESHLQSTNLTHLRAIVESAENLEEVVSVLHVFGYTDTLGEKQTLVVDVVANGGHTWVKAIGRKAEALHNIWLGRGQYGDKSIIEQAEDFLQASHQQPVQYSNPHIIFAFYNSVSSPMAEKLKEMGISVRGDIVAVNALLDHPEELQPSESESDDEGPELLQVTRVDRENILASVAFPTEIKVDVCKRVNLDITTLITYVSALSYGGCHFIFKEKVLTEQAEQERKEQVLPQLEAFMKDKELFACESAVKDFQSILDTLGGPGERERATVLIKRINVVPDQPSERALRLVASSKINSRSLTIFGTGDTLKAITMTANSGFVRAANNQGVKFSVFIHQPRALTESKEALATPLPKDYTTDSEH
UniProt Q5JPI3: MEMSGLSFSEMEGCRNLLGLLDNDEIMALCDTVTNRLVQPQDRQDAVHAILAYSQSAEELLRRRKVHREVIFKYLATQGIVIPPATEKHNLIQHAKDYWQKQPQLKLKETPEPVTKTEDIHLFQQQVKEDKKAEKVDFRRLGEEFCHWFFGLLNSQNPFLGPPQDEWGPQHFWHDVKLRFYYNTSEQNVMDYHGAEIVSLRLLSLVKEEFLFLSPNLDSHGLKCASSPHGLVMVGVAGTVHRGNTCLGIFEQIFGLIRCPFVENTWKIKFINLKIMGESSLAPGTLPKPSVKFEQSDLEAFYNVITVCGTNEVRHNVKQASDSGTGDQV
UniProt O95873: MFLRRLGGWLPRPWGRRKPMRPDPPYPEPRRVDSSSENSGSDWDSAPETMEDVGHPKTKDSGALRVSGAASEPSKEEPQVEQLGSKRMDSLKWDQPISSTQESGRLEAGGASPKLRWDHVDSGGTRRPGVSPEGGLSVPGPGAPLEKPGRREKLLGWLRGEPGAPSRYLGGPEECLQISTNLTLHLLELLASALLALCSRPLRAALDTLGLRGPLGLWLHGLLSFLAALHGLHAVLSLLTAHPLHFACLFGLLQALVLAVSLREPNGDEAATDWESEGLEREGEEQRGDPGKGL
UniProt Q32NC0: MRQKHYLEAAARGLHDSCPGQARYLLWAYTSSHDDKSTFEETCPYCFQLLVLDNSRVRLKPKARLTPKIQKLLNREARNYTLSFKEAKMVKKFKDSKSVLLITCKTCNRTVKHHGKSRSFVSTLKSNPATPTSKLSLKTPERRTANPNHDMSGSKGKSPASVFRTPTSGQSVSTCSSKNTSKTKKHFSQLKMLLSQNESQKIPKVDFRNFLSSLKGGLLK
UniProt Q7Z4R8: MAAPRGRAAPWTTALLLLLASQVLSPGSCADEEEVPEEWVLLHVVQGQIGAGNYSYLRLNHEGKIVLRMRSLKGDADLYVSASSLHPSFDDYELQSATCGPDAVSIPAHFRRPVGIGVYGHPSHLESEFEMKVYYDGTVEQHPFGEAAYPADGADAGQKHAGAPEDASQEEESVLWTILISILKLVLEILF

What was measured:
Assay in all cases: log2 fold change, soluble protein after heating vs DMSO (PISA); higher = thermal stabilisation; K562 lysate, 10 uM; active = over 0.2 and 3.5 SD of the protein, either way, in both replicates (recomputed)
[1] = compound: C1=CC=C(C=C1)[C@H](COC2=CC3=C(C=C2)NC(=O)N3)NC(=O)C4=CC=CN(C4=O)CC5=CC(=C(C=C5)F)F
Procedure, shortened: (§1)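 Thermal stability, expressed as log-two fold change relative to solvent controls, is given from duplicates. Crude K562 extract in PBS pH 7.4 with 1 mM MgCl2, at 1 mg/mL protein, was treated with 10 μM compound for 30 min and heated in aliquots for 3 min across 48°C-58°C. After pooling, adjustment to 0.5% NP-40 at 4°C and centrifugation at 21,000xg for 90 min, supernatant protein was measured by TMTpro 16plex LC-MS/MS with channel sums equalised.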

[2] = compound: CC1=C(SC2=C1C(=N[C@H](C3=NN=C(N32)C)CC(=O)N)C4=CC=C(C=C4)Cl)C
Procedure, shortened: as §1

[3] = compound: CC1=C2C(=CC=C1)N=C(N(C2=O)C3=CC=CC=C3C)CN4C=NC5=C(N=CN=C54)N
Procedure, shortened: as §1

[4] = compound: Cc1sc2c(c1C)C(c1ccc(Cl)cc1)=N[C@@H](CC(=O)OC(C)(C)C)c1nnc(C)n1-2
Procedure, shortened: as §1

[5] = compound: c1ccc([C@@H]2C[C@H]2NC2CCNCC2)cc1
Procedure, shortened: as §1

Measured: log2 fold change

C11orf68 isoform 3 (UniProt Q9H3H3)
inactive: [1] -0.007 | [2] 0.003 | [3] 0.008 | [4] -0.004 | [5] -0.085

C2CD2L (UniProt O14523)
inactive: [1] -0.041 | [2] 0.073 | [3] 0.155 | [4] -0.039 | [5] -0.02

C1QBP (UniProt Q07021)
inactive: [1] 0.005 | [2] -0.025 | [3] -0.008 | [4] -0.002 | [5] -0.005

2 neighbouring records from above, quoted:
C2CD2L (UniProt O14523)
inactive: [1] -0.041 | [2] 0.073 | [3] 0.155 | [4] -0.039 | [5] -0.02

C1QBP (UniProt Q07021)
inactive: [1] 0.005 | [2] -0.025 | [3] -0.008 | [4] -0.002 | [5] -0.005

The list goes on:

C12orf73 (UniProt Q69YU5)
inactive: [1] 0.129 | [2] -0.103 | [4] 0.046 | [5] -0.057

CANT1 (UniProt Q8WVQ1)
inactive: [1] 0.013 | [2] -0.021 | [3] -0.003 | [4] 0.011 | [5] 0.012

CAB39L (UniProt Q9H9S4)
inactive: [1] 0.005 | [2] 0.004 | [3] 0.053 | [4] -0.064 | [5] 0.074

C12orf29 (UniProt Q8N999)
inactive: [1] -0.098 | [2] 0.071 | [3] 0.041 | [4] -0.048 | [5] -0.059

C5orf51 (UniProt A6NDU8)
inactive: [1] -0.047 | [2] -0.023 | [3] 0.001 | [4] -0.026 | [5] 0.092

BYSL (UniProt Q13895)
inactive: [1] -0.046 | [2] 0.011 | [3] 0.02 | [4] 0.029 | [5] 0.041

BZW1 isoform 3 (UniProt Q7L1Q6)
inactive: [1] -0.038 | [2] 0.014 | [3] 0.001 | [4] 0.004 | [5] 0.032

CAPNS1 (UniProt P04632)
inactive: [1] 0 | [2] -0.041 | [3] -0.067 | [4] 0.057 | [5] -0.014

CAND1 (UniProt F5H6I6)
inactive: [1] -0.015 | [2] 0.117 | [4] -0.076

BTRC (UniProt Q9Y297)
inactive: [1] 0.024 | [2] -0.042 | [3] -0.003 | [5] -0.048

CAPRIN1 (UniProt Q14444)
inactive: [1] 0.026 | [2] -0.016 | [3] -0.021 | [4] 0.046 | [5] 0.047

C8orf76 (UniProt Q96K31)
inactive: [1] 0.16 | [2] 0.088 | [3] 0.024 | [4] -0.081 | [5] -0.034

CALU isoform 3 (UniProt O43852)
inactive: [1] 0.045 | [2] 0.002 | [3] -0.044 | [4] -0.032 | [5] -0.057

C7orf25 isoform 2 (UniProt Q9BPX7)
inactive: [1] -0.138 | [2] 0.067 | [3] 0.336 | [4] 0.088 | [5] 0.185

CALM2 (UniProt P0DP24)
inactive: [1] -0.07 | [2] -0.177 | [3] 0.009 | [4] -0.088 | [5] -0.001

C3orf38 (UniProt Q5JPI3)
inactive: [1] -0.054 | [2] -0.019 | [3] -0.019 | [4] 0.016 | [5] 0.061

C6orf47 (UniProt O95873)
inactive: [1] -0.009 | [2] 0.037 | [3] -0.024 | [4] -0.088 | [5] -0.055

CALU isoform 4 (UniProt O43852)
inactive: [1] -0.045 | [2] -0.003 | [3] 0.014 | [4] 0.015 | [5] -0.001

C18orf21 (UniProt Q32NC0)
inactive: [1] 0.085 | [2] -0.03 | [4] 0.158 | [5] 0.023

C6orf120 (UniProt Q7Z4R8)
inactive: [1] -0.101 | [2] -0.015 | [4] -0.131 | [5] 0.137

C1GALT1C1 (UniProt Q96EU7)
inactive: [1] -0.063 | [2] -0.012 | [3] 0.025 | [4] 0.019 | [5] -0.058

C11orf96 (UniProt Q7Z7L8)
inactive: [1] 0.167 | [2] -0.021 | [4] 0.008 | [5] 0.031
